Data: PubChem BioAssay AID743266 (National Center for Advancing Translational Sciences (NCATS), 2014)
“And” between values parts separate entries of the source, which are not always exact repeats. Equal entries are not always repeated. Screen size: about 410,000 compounds; about 310 (0.076%) were called active. Inconclusive results, whose numbers are uncertain, are shown with a selection of clear calls. The call rests on the fitted dose curve; in most records, active means well fitted activation curve with a large enough effect; inconclusive means small, poorly fitted or top-dose-only effect, or another doubt; inactive means no such curve, though single readings can be large or run the other way. Potencies beside an inconclusive call are fits to weak or partial responses and may not hold up. The source holds several records for some structures; these can differ, active in one and inactive in another.

Protein sequences, listed by entry. Tags and fused reporters are not part of them. Lines headed by an entry give the natural chain unless they say otherwise; changes in a name come on top.
UniProt Q03431: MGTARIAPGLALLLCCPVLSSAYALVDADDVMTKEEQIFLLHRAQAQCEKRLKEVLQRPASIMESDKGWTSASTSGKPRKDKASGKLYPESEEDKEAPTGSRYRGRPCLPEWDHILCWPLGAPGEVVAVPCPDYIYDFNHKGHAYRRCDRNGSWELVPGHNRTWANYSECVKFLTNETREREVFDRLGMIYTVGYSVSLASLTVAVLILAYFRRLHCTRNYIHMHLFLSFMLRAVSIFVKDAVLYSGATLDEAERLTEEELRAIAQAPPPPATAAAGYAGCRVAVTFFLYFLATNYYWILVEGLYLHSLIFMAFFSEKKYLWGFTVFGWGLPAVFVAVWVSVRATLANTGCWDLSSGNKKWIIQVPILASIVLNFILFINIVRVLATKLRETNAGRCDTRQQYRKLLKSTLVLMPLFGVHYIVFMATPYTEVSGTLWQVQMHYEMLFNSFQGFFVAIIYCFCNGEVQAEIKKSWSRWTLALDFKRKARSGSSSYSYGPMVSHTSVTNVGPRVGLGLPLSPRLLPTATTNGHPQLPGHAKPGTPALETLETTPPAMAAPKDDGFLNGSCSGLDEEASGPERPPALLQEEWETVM

molecular target: Parathyroid hormone/parathyroid hormone-related peptide receptor (Homo sapiens) (UniProt Q03431); experiment: qHTS for PTHR1 Agonists: Primary Screen; conditions: HEK293 GP2 PTHR1 cells, GloSensor cAMP luminescence, 1 h; activation: at 115 µM (top of the series) unless noted; series mostly up to 115 µM; further: nearly all actives have a fitted effect of over 55% in size
How it was run: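 HEK-293-derived GP2 cells expressing PTHR1 and a GloSensor cAMP reporter, 3,000/well, plated overnight, given luciferin plus IBMX (each 0.5 mM as added) for 1 h at 37 °C, then compound for 1 h at 37 °C. Luminescence was read after 15 min at room temperature.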
Potency means the concentration at half of the fitted maximal effect.

Q: For COc1ccc(C(=O)Nc2nc3ccccc3s2)cc1, which Potency is on record?
A: Its Potency is “inactive”.

Q: How did the Potency turn out when CCOC(=O)CSc1nc2sc3c(c2c(=O)[nH]1)CC(C)(CC)OC3 (stereo unspecified) was run?
A: The Potency was inconclusive: 31.6 µM [activator, single point].

Q: For CCC(C)N(CCNC(=O)c1ccc2c(c1)NC(=O)c1ccccc1S2)C1CCCCC1 (stereo unspecified), which Potency is on record?
A: The Potency was inconclusive: 35.5 µM [activator, full curve, poor fit].

Q: For C=C(C)Cn1c(-c2ccncc2)n[nH]c1=S, which activation is on record?
A: The activation was inconclusive: 46.8% [activator].

Q: With CCC1CCCCN1CCCNC(=O)c1cc2c(Cl)nc3ccccc3c2s1 (stereo unspecified) as the compound, how does the Potency read?
A: Its Potency is “inactive and active: 25.1 µM”.

Q: How did the Potency turn out when COc1ccc(OC)c(NC(=O)N2CCN(S(=O)(=O)c3ccc4c(ccn4C)c3)CC2)c1 was run?
A: Its Potency is “inactive”.

Q: How did the Potency turn out when Cc1c(C(=O)N2c3ccccc3Sc3ccccc32)cccc1[N+](=O)[O-] was run?
A: Its Potency is “inactive”.

Q: How did the Potency turn out when COC(=O)Cc1c(O)ccn(Cc2ccc3c(c2)OCO3)c1=O was run?
A: The Potency was “inactive”.

Q: With CCOC(=O)c1c(C)oc2nc(C)nc(Nc3ccc(CC)cc3)c12 as the compound, how does the Potency read?
A: Its Potency is inconclusive: 14.1 µM [activator, partial curve].

Q: How did the Potency turn out when CCn1c(O)c(N=NC(=O)c2cccnc2)c2cc(Br)ccc21 was run?
A: Its Potency is inconclusive: 126 µM [activator, single point].

Q: CCCn1nc([N+](=O)[O-])c(C(C#N)c2nc3ccccc3o2)c(Cl)c1=O (stereo unspecified) was tested. Which Potency did it give?
A: The Potency was “inactive”.

Q: For O=C(COC(=O)c1ccncc1)Nc1cccc(Cl)c1, which Potency is on record?
A: Its Potency is inconclusive: 112 µM [activator, partial curve, poor fit].

Q: For Cc1cccc(C)c1NC(=O)COC(=O)c1ccc2[nH]c3c(c2c1)CCCC3, which Potency is on record?
A: Its Potency is inconclusive: 126 µM [activator, single point].

Q: For CN(Cc1n[nH]c(=S)n1C)S(=O)(=O)c1ccccc1, which Potency is on record?
A: Its Potency is inconclusive: 35.5 µM [activator, single point].

Q: COc1ccc(OC)cc1 was tested. Which Potency did it give?
A: Its Potency is “inactive”.

Q: CC(C)CCC1CC(CSC(=N)N)OC1=O (stereo unspecified) was tested. Which activation did it give?
A: The activation was inconclusive: 7.68% [activator] [at 57.5 µM].

Q: Which Potency does the source give for COc1ccc(NC(=O)CSc2nc(-c3ccccc3)cc(-c3cc(OC)c(OC)c(OC)c3)c2C#N)c(OC)c1 here?
A: Its Potency is “inactive”.

Q: Cc1ccccc1C(=O)N1CCC(C(=O)NN2C(=O)NC3(CCCCC3)C2=O)CC1 was tested. Which activation did it give?
A: The activation was inconclusive: -92.7% [activator].

Q: Which Potency does the source give for Cc1[nH]n(C(N)=S)c(=O)c1N=Nc1ccc2ccccc2c1 here?
A: The Potency was “inactive”.

Q: Which Potency does the source give for CCOC(=O)c1sc(NC(=O)Nc2cccc(Cl)c2)cc1C here?
A: Its Potency is “inactive”.

Q: For CC1CCc2nc3ccc(S(=O)(=O)N4CCC(C(=O)NCc5ccccc5Cl)CC4)cc3c(C(=O)O)c2C1 (stereo unspecified), which Potency is on record?
A: Its Potency is inconclusive: 100 µM [activator, partial curve, poor fit] and inconclusive: 100 µM [activator, single point].
